In the supplement of paper PMC10849652:
The list shows a part of the results. Residues, ends and D or L forms follow the SMILES beside them. *: point of attachment. Cbz = O=C(OCc1ccccc1)*

Sequences of proteins named here, by UniProt entry; tags and fusion partners are left off. A change or cut given only in a name is not applied to a line headed by its entry.
UniProt Q7LFL8: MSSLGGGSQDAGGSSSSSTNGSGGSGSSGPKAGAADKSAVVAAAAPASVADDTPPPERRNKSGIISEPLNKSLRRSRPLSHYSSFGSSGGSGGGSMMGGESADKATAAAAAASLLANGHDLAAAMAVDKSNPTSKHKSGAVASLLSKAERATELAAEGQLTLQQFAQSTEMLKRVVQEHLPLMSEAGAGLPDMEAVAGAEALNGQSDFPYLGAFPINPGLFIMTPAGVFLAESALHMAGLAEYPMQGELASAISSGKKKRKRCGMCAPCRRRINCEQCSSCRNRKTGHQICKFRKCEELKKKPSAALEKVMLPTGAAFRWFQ
UniProt P53355: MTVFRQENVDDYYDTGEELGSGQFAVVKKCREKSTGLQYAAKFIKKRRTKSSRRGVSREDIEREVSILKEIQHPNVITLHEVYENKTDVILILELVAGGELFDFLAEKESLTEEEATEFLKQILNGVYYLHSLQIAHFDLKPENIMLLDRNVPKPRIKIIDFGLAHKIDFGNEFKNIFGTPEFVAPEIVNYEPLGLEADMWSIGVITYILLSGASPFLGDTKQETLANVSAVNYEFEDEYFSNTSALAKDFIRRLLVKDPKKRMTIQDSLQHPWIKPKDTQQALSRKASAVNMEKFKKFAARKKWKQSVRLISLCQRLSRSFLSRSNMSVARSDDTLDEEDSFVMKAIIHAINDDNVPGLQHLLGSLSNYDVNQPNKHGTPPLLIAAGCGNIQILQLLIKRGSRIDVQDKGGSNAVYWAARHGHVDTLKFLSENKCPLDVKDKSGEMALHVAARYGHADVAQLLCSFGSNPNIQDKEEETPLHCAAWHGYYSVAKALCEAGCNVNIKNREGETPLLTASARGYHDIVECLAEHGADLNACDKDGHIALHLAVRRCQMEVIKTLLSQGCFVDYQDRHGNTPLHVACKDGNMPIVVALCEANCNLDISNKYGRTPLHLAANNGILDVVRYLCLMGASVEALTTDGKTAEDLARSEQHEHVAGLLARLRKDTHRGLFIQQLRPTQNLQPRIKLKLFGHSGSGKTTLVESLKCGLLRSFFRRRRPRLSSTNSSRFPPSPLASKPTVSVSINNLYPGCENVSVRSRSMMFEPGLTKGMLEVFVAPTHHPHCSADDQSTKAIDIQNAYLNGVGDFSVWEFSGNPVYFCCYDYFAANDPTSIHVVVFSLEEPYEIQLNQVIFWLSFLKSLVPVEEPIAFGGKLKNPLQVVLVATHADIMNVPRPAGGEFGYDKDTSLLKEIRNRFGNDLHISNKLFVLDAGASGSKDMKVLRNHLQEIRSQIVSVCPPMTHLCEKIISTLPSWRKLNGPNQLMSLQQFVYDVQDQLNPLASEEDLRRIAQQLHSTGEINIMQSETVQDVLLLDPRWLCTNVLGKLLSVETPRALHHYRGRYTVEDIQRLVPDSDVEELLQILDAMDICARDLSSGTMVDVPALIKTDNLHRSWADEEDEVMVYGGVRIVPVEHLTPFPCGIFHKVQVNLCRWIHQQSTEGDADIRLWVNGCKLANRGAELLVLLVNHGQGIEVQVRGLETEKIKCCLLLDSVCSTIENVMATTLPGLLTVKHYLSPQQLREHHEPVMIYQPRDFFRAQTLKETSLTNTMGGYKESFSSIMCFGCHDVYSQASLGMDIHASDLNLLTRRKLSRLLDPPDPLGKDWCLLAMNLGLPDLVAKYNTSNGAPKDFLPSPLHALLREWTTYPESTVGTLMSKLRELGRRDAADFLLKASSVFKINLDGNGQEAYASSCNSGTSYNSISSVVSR
UniProt Q9BWK5: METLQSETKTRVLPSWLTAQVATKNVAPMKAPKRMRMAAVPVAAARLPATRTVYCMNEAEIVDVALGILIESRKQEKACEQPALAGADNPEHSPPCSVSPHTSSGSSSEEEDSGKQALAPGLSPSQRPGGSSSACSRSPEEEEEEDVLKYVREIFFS
UniProt O43310: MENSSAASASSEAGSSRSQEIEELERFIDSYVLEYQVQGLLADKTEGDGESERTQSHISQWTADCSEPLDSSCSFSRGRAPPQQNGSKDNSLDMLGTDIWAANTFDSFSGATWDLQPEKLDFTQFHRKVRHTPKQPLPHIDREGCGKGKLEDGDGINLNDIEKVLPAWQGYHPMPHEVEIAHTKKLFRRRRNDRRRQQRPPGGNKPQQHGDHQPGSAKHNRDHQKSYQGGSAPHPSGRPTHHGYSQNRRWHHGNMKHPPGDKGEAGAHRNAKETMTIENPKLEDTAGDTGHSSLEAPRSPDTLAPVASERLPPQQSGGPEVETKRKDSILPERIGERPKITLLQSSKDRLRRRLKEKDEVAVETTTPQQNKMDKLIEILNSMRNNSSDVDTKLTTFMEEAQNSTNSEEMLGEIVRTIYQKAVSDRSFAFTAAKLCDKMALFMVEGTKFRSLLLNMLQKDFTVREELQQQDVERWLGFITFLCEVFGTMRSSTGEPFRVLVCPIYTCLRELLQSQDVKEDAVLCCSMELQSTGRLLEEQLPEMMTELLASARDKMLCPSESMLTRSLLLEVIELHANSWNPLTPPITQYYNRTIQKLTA
UniProt O95196: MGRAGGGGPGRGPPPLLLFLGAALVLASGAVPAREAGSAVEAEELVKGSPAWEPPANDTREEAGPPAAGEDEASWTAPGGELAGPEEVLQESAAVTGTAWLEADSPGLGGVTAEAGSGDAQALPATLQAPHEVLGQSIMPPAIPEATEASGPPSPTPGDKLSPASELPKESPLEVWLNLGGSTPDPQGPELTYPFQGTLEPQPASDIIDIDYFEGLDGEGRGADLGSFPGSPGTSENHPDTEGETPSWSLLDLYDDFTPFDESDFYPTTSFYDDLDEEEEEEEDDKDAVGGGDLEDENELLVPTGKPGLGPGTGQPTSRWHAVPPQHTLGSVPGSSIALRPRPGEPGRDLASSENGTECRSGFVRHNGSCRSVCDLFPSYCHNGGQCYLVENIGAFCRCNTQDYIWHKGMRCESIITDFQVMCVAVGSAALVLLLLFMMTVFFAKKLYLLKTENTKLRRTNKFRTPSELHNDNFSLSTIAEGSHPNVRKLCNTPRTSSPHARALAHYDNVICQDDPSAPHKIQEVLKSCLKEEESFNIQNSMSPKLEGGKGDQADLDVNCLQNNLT
UniProt P25774, whole entry, looked up: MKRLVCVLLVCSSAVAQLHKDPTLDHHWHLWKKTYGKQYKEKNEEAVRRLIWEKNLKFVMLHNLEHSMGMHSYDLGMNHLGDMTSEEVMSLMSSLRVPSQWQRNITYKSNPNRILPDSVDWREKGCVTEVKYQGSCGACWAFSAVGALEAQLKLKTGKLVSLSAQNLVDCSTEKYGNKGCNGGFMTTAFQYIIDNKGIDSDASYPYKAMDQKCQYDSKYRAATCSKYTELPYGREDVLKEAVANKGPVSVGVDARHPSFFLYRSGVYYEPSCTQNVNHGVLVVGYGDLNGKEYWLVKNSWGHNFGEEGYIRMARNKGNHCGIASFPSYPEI
UniProt Q92564: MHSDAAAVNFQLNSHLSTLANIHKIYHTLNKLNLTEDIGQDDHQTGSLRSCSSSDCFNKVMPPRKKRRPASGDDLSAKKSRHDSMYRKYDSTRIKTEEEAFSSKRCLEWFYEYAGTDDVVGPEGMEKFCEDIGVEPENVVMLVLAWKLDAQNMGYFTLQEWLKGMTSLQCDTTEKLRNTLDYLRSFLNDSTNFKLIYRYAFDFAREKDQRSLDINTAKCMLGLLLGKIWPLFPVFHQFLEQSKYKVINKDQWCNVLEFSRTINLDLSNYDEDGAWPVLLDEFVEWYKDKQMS
UniProt Q8N8Z6: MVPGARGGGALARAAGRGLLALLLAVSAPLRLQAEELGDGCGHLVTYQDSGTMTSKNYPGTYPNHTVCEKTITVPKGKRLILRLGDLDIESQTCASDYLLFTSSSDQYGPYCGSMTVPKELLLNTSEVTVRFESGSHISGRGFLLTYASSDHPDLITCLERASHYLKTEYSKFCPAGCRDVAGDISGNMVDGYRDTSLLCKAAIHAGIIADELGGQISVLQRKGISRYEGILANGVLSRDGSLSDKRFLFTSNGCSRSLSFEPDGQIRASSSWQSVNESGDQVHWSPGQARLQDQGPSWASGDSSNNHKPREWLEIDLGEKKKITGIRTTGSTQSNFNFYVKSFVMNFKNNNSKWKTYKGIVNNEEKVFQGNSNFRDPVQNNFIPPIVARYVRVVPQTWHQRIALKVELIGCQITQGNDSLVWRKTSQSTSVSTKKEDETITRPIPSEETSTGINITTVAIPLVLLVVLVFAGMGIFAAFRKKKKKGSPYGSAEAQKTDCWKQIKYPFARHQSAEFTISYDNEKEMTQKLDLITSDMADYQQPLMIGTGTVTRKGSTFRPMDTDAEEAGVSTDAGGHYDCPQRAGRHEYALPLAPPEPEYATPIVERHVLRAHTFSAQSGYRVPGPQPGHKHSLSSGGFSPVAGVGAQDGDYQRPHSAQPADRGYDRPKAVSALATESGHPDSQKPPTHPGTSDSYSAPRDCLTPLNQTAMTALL
UniProt Q8IZD4: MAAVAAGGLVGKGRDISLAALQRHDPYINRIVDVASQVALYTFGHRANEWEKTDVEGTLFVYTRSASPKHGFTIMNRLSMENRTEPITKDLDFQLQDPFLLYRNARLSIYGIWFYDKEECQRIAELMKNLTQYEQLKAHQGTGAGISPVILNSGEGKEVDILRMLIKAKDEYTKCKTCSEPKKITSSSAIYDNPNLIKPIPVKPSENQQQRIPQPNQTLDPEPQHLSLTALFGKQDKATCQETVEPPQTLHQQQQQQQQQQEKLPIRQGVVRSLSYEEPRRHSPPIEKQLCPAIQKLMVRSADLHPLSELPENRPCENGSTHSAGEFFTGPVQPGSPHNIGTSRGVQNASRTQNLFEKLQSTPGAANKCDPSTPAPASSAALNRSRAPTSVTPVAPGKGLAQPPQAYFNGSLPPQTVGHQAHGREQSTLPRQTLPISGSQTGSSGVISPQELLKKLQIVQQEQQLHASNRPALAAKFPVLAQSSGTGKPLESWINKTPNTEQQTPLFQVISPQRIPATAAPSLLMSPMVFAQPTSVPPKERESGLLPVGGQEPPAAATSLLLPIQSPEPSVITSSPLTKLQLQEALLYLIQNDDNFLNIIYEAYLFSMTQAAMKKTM
UniProt P01037: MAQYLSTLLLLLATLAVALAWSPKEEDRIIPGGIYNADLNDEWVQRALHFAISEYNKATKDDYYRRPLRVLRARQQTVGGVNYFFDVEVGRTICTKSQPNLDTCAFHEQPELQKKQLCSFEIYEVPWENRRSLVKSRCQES
UniProt Q9Y6A2: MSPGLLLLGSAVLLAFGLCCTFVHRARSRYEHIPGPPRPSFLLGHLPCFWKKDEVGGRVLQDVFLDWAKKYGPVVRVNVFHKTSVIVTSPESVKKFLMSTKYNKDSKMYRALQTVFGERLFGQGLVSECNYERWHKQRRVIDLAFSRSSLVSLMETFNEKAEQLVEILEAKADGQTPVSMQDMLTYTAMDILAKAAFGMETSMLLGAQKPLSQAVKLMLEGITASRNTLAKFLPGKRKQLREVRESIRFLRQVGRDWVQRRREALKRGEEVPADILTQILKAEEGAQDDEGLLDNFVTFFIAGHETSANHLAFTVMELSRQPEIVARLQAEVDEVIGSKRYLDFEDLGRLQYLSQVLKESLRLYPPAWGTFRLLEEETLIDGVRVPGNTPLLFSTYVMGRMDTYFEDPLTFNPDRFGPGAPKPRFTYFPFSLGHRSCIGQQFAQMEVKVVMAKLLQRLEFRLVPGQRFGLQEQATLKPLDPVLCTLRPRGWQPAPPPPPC
UniProt Q8WYA6: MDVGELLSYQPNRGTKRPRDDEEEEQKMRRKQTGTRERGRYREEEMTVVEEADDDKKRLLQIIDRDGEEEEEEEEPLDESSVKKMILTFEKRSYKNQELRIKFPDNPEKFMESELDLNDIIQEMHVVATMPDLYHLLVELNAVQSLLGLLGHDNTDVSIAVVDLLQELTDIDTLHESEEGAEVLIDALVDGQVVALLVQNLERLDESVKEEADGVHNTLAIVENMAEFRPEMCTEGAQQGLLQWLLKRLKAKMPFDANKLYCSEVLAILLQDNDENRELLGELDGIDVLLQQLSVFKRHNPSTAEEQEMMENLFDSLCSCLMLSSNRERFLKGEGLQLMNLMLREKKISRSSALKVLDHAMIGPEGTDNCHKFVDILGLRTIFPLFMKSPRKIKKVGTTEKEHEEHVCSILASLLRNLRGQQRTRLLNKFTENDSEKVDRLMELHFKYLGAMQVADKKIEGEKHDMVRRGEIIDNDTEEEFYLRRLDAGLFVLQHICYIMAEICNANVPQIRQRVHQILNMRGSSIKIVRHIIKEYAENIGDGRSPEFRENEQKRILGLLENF
UniProt O95715: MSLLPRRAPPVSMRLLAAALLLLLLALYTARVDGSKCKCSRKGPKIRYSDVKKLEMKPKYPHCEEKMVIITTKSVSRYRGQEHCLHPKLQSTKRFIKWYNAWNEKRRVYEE
UniProt O95476: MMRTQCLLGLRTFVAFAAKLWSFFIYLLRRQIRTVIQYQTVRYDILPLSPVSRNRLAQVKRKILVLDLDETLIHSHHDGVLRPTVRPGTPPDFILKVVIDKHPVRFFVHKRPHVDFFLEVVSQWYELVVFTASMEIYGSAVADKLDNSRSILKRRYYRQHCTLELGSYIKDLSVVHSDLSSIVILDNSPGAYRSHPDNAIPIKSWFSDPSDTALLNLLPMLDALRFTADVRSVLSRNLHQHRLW

Tests used:
Test in all cases: log2 fold change, soluble protein after heating vs DMSO (PISA); higher = thermal stabilisation; K562 cells, 10 uM, 30 min; active = over 0.2 and 3.5 SD of the protein, either way, in both replicates (recomputed)
erlotinib = compound: C#Cc1cccc(Nc2ncnc3cc(OCCOC)c(OCCOC)cc23)c1 [erlotinib]
Procedure, shortened: (§1)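 K562 cells at 2×10^6 cells/mL were exposed to 10 μM compound for 30 min, then aliquots were heated for 3 min across 48°C-58°C, pooled, and extracted in PBS containing 0.5% NP-40 at 4°C. The supernatant after 21,000xg for 90 min was taken as soluble protein and measured by TMTpro 16plex LC-MS/MS with channel sums equalised. Thermal stability is reported relative to control samples, with values from duplicates. Fold changes are given on a log2 scale.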

[1] = compound: C1=CC(=C(C=C1Cl)C2=NC3=NC=CN=C3C(=N2)NC4=CC=NC=C4)F
Procedure, shortened: as §1

[2] = compound: C1=CC(=CC=C1C2=NC3=C(N2)C=C(C=C3)C(=O)N)OC4=CC=C(C=C4)Cl
Procedure, shortened: as §1

[3] = compound: C1=CC=C(C=C1)C2=NC(=C(N2)C3=CC=NC=C3)C4=CC(=C(C=C4)Cl)O
Procedure, shortened: as §1

ralimetinib = compound: CC(C)(C)Cn1c(N)nc2ccc(-c3[nH]c(C(C)(C)C)nc3-c3ccc(F)cc3)nc21 [ralimetinib]
Procedure, shortened: as §1

[4] = compound: CC(C)(O)CC(=O)NCCn1ccc2ncnc(Nc3ccc(Oc4cccc(C(F)(F)F)c4)c(Cl)c3)c21
Procedure, shortened: as §1

[5] = compound: CC(C)C1=C2N=C(C=C(N2N=C1)NCC3=CC=CC=C3)NCCCCCCN
Procedure, shortened: as §1

[6] = compound: CC(C)C[C@@H](C=O)NC(=O)[C@H](CC(C)C)NC(=O)[C@H](CC(C)C)NC(=O)OCc1ccccc1
Procedure, shortened: as §1

[7] = compound: C1=CC2=NC=CN=C2C=C1/C=C/3\C(=O)NC(=O)S3
Procedure, shortened: as §1

ibrutinib = compound: C=CC(=O)N1CCC[C@@H](n2nc(-c3ccc(Oc4ccccc4)cc3)c3c(N)ncnc32)C1 [ibrutinib]
Procedure, shortened: as §1

[8] = compound: C/C(=N\NC(=O)C1=CC(=CC=C1)S(=O)(=O)N2CCOCC2)/C3=C(C=CC(=C3)Cl)O
Procedure, shortened: as §1

[9] = compound: C1=CC2=C(C=CC(=C2)/C=C\3/C(=O)NC(=NCC4=CC=CS4)S3)N=C1
Procedure, shortened: as §1

[10] = compound: C1=CC=C2C(=C1)C3=NNC4=CC=CC(=C43)C2=O
Procedure, shortened: as §1

IRAK-1-4 Inhibitor I = compound: C1COCCN1CCN2C3=CC=CC=C3N=C2NC(=O)C4=CC(=CC=C4)[N+](=O)[O-] [IRAK-1-4 Inhibitor I]
Procedure, shortened: as §1

[11] = compound: CC(=O)c1cnc2ccc(-c3cc(Cl)c(O)c(Cl)c3)nc2c1N[C@H]1CC[C@H](CN(C)C)CC1
Procedure, shortened: as §1

pinometostat = compound: CC(C)N(C[C@H]1O[C@@H](n2cnc3c(N)ncnc32)[C@H](O)[C@@H]1O)[C@H]1C[C@@H](CCc2nc3cc(C(C)(C)C)ccc3[nH]2)C1 [pinometostat]
Procedure, shortened: as §1

[12] = compound: CC1=C(C(CC(=O)N1)C2=CC=C(C=C2)C(F)(F)F)C(=O)NC3=C(C=C4C(=C3)C=NN4)F
Procedure, shortened: as §1

[13] = compound: C1CCN(C1)C(=O)NC2=CC=CC(=C2)NC3=NC=C(C(=N3)NCCC4=CN=CN4)Br
Procedure, shortened: as §1

[14] = compound: C1CN(CCC1(CC2=CC=C(C=C2)Cl)N)C3=NC=NC4=C3C=CN4
Procedure, shortened: as §1

[15] = compound: CC1=C(C2=C(C=C1)C(=O)C3=CC=CC=C3N2CCCN)C
Procedure, shortened: as §1

Measured: log2 fold change

CXXC5 (UniProt Q7LFL8)
inactive: erlotinib 0.044 | [1] -0.162 | [2] -0.1 | [3] 0.116 | ralimetinib 0.009 | [4] -0.117 | [5] 0.061 | [6] 0.179

DAPK1 isoform 3 (UniProt P53355)
inactive: [1] -0.496 | [7] 0.146 | [3] -0.331 | ibrutinib -0.073 | ralimetinib -0.152 | [4] 0.088 | [6] -0.05

DBNDD1 isoform 3 (UniProt Q9H9R9)
inactive: erlotinib 0.184 | [1] 0.093 | [2] -0.508 | [4] -0.036 | [5] -0.031

CYREN isoform 4 (UniProt Q9BWK5)
inactive: [8] -0.191 | [9] 0.05 | [7] -0.013 | [10] -0.071 | IRAK-1-4 Inhibitor I -0.115 | ibrutinib -0.058 | [11] -0.061 | pinometostat -0.042

CTR9 (UniProt Q6PD62)
inactive: erlotinib 0.036 | [1] -0.143 | [2] 0.272 | [3] -0.136 | IRAK-1-4 Inhibitor I -0.115 | ralimetinib 0.154 | [4] -0.038 | [5] -0.546 | [6] 0.197 | pinometostat -0.039

CTBP1 (UniProt E7ESU7)
inactive: erlotinib 0.124 | [2] 0.004 | [5] -0.061

CTDSPL2 (UniProt Q05D32)
inactive: [8] 0.042 | [1] 0.064 | [9] -0.242 | [10] 0.055 | [11] -0.15 | [4] -0.251 | [12] -0.175

CTIF (UniProt O43310)
inactive: [1] -0.056 | [3] -0.457 | [13] -0.019 | [14] -0.103 | ralimetinib -0.268 | [4] -0.138 | [6] 0.061 | [15] -0.029

CSPG5 (UniProt O95196)
inactive: erlotinib -0.002 | [1] 0.143 | [2] -0.084 | [4] -0.036 | [5] 0.314

DCUN1D5 (UniProt Q9BTE7)
inactive: [8] -0.174 | [9] 0.038 | [3] -0.097 | [10] -0.134 | [13] -0.012 | [14] -0.04 | IRAK-1-4 Inhibitor I 0.099 | [11] 0.027 | ralimetinib 0.014 | [6] 0.094 | pinometostat -0.007 | [15] 0.038

CTDP1 (UniProt Q9Y5B0)
inactive: erlotinib -0.059 | [1] 0.056 | [2] 0.03 | [13] -0.033 | [14] -0.139 | IRAK-1-4 Inhibitor I -0.047 | [4] -0.108 | [5] -0.218 | pinometostat 0.049 | [12] 0.02 | [15] 0.122

CYP2R1 (UniProt Q6VVX0)
inactive: [7] 0.053 | [13] 0.073 | [14] 0.081 | ibrutinib 0.004 | [12] 0.038 | [15] 0.076

DCBLD2 isoform 2 (UniProt Q96PD2)
inactive: [8] 0.348 | [9] -0.292 | [10] 0.232 | [11] -0.021

CTSS (UniProt P25774)
inactive: [3] -0.215 | [13] 0.144 | [14] 0.545 | IRAK-1-4 Inhibitor I -0.023 | ralimetinib -0.026 | [6] 0.12 | pinometostat -0.001 | [15] 0.316

DAAM2 (UniProt Q86T65)
inactive: erlotinib -0.121 | [1] -0.123 | [2] 0.093 | [7] -0.136 | [3] -0.209 | IRAK-1-4 Inhibitor I 0.079 | ibrutinib 0.172 | ralimetinib 0.19 | [4] -0.113 | [5] 0.227 | [6] 0.12 | pinometostat -0.062 | [12] -0.246

CTDSP1 (UniProt Q9GZU7)
inactive: erlotinib -0.064 | [2] 0.049 | [3] -0.069 | [13] -0.05 | [14] -0.221 | ralimetinib -0.036 | [5] -0.207 | [6] 0.169 | [12] -0.072 | [15] -0.047

CST6 (UniProt Q15828)
inactive: [1] -0.041 | [13] -0.009 | [14] -0.269 | [4] 0.175 | [12] -0.991 | [15] 1.63

DCUN1D4 isoform 3 (UniProt Q92564)
inactive: [8] 0.148 | [1] 0.097 | [9] 0.04 | [10] 0.037 | [13] 0.047 | [14] 0.082 | IRAK-1-4 Inhibitor I -0.075 | [11] -0.088 | [4] -0.02 | pinometostat 0.127 | [15] -0.349

CYREN (UniProt Q9BWK5)
inactive: erlotinib -0.027 | [2] 0.112 | [3] 0.027 | IRAK-1-4 Inhibitor I -0.111 | ralimetinib -0.12 | [5] 0.181 | [6] 0.055 | pinometostat -0.151 | [12] -0.075

CXorf40B (UniProt Q96DE9)
inactive: [8] 0.057 | [1] 0.027 | [9] 0.113 | [3] 0.039 | [10] -0.221 | IRAK-1-4 Inhibitor I 0.012 | [11] -0.198 | ralimetinib 0.01 | [4] -0.093 | [6] -0.08 | pinometostat -0.067

DCBLD1 (UniProt Q8N8Z6)
inactive: [1] 0.034 | [4] 0.248

DCP1B (UniProt Q8IZD4)
inactive: [7] 0.079 | [13] -0.164 | [14] -0.197 | ibrutinib -0.052 | [15] 0.044

Nine consecutive records already listed:
DCBLD2 isoform 2 (UniProt Q96PD2)
inactive: [8] 0.348 | [9] -0.292 | [10] 0.232 | [11] -0.021

CTSS (UniProt P25774)
inactive: [3] -0.215 | [13] 0.144 | [14] 0.545 | IRAK-1-4 Inhibitor I -0.023 | ralimetinib -0.026 | [6] 0.12 | pinometostat -0.001 | [15] 0.316

DAAM2 (UniProt Q86T65)
inactive: erlotinib -0.121 | [1] -0.123 | [2] 0.093 | [7] -0.136 | [3] -0.209 | IRAK-1-4 Inhibitor I 0.079 | ibrutinib 0.172 | ralimetinib 0.19 | [4] -0.113 | [5] 0.227 | [6] 0.12 | pinometostat -0.062 | [12] -0.246

CTDSP1 (UniProt Q9GZU7)
inactive: erlotinib -0.064 | [2] 0.049 | [3] -0.069 | [13] -0.05 | [14] -0.221 | ralimetinib -0.036 | [5] -0.207 | [6] 0.169 | [12] -0.072 | [15] -0.047

CST6 (UniProt Q15828)
inactive: [1] -0.041 | [13] -0.009 | [14] -0.269 | [4] 0.175 | [12] -0.991 | [15] 1.63

DCUN1D4 isoform 3 (UniProt Q92564)
inactive: [8] 0.148 | [1] 0.097 | [9] 0.04 | [10] 0.037 | [13] 0.047 | [14] 0.082 | IRAK-1-4 Inhibitor I -0.075 | [11] -0.088 | [4] -0.02 | pinometostat 0.127 | [15] -0.349

CYREN (UniProt Q9BWK5)
inactive: erlotinib -0.027 | [2] 0.112 | [3] 0.027 | IRAK-1-4 Inhibitor I -0.111 | ralimetinib -0.12 | [5] 0.181 | [6] 0.055 | pinometostat -0.151 | [12] -0.075

CXorf40B (UniProt Q96DE9)
inactive: [8] 0.057 | [1] 0.027 | [9] 0.113 | [3] 0.039 | [10] -0.221 | IRAK-1-4 Inhibitor I 0.012 | [11] -0.198 | ralimetinib 0.01 | [4] -0.093 | [6] -0.08 | pinometostat -0.067

DCBLD1 (UniProt Q8N8Z6)
inactive: [1] 0.034 | [4] 0.248

Next records

CST1 (UniProt P01037)
inactive: [1] -0.097 | [7] -0.158 | ibrutinib 0.257 | [4] 0.038 | [12] -0.152

CYP46A1 (UniProt Q9Y6A2)
inactive: [8] -0.02 | [9] 0.097 | [7] 0.031 | [3] -0.454 | [10] 0.14 | [13] 0.072 | [14] -0.062 | IRAK-1-4 Inhibitor I 0.036 | ibrutinib -0.022 | [11] -0.077 | ralimetinib -0.273 | [6] 0.235 | pinometostat 0.033 | [15] -0.033

DCAF4 (UniProt Q8WV16)
inactive: [1] 0.009 | [3] -0.15 | ralimetinib -0.026 | [4] -0.019 | [6] -0.042

CTNNBL1 (UniProt Q8WYA6)
inactive: [7] -0.032 | ibrutinib 0.046

CXCL14 (UniProt O95715)
inactive: [7] -0.117 | IRAK-1-4 Inhibitor I -0.249 | ibrutinib -0.05 | pinometostat -0.017 | [12] 0.114

DCP2 (UniProt Q8IU60)
inactive: [8] 0.176 | [1] -0.117 | [9] -0.118 | [3] 0.021 | [10] -0.073 | [13] -0.134 | [14] -0.064 | IRAK-1-4 Inhibitor I -0.372 | [11] -0.265 | ralimetinib 0.105 | [4] 0.147 | [6] 0.185 | pinometostat 0.038 | [15] -0.111

CTPS1 isoform 2 (UniProt P17812)
inactive: [8] -0.256 | [9] 0.274 | [10] -0.181 | [11] -0.143

CTDNEP1 (UniProt O95476)
inactive: erlotinib -0.163 | [8] -0.04 | [2] -0.052 | [9] 0.086 | [10] -0.007 | [13] -0.287 | [14] 0.153 | [11] -0.159 | [5] 0.072 | [15] 0.064

CWC22 (UniProt Q9HCG8)
inactive: IRAK-1-4 Inhibitor I -0.055 | pinometostat 0.164

CXXC1 isoform 2 (UniProt Q9P0U4)
inactive: [8] -0.013 | [9] 0.122 | [10] -0.016 | [13] 0.081 | [14] 0.042 | IRAK-1-4 Inhibitor I 0.055 | [11] -0.012 | pinometostat 0.041 | [15] 0.028
